PubChem BioAssay AID743121 | NCATS, 2013
Screen: 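Partners whose loss is lethal together with topoisomerase I blockade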 (primary screen). Cell system: MDA-MB-231 cells, a human breast cancer line. Reagents: single siRNA against human genes, 20 nM siRNA (0.8 pmol per well). Timing: 120 h (drug added 48 h after transfection, read 72 h later). Treatment: camptothecin 20 nM (about EC30) for 72 h; vehicle 0.1% DMSO in parallel plates. Measured: 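Cell viability by ATP luminescence (CellTiter-Glo) as % of non-targeting siRNA wells, and the log2 ratio of viability without drug over viability with camptothecin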. Direction: log2 vehicle/camptothecin viability: higher = stronger sensitisation to camptothecin. Active means: 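Each gene scored by redundant siRNA activity (RSA) over its individual siRNA ratios; a gene is called active at p < 0.001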.
In all, the deposit lists about 26,000 reagents; this is a part drawn at random. Over the whole deposit, 167 (0.63%) were called active. 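Calls are per gene from RSA p-values that are not deposited; an individual active-marked siRNA can sensitise only weakly.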 A number with no mark means an inactive call. Not all columns of the deposit are shown.

log2 vehicle/camptothecin viability, by gene and reagent
NXNL1: SID164562710 0.644; SID164562713 -0.213; SID164562714 -0.735; SID164562715 -0.282
SENP3: SID164459193 0.203; SID164459195 -0.214; SID164459197 0.296
TUBB1: SID164537381 0.39; SID164537382 -0.404; SID164537384 -0.33; SID164537385 -0.148
BAX: SID164355039 0.36; SID164355041 -0.176; SID164355042 -0.232
KIF13A: SID164500518 0.039; SID164500519 -0.267; SID164500521 0.0783
IFNA16: SID164370864 0.0647; SID164370865 -0.0841; SID164370867 0.102; SID164370868 -0.1
LCMT2: SID164406720 -0.083; SID164406721 0.267; SID164406722 -0.569; SID164406723 -0.193
HCN4: SID164408142 -0.108; SID164408143 -0.173; SID164408144 -0.226; SID164408145 -0.229
RNF144A: SID164406264 -0.0573; SID164406267 -0.0277; SID164406269 -0.445
PEX13: SID164380229 0.755; SID164380231 0.21
AHSG: SID164352840 -0.102; SID164352842 0.207; SID164352843 0.142; SID164352845 0.0668
NRGN: SID164378498 0.000636; SID164378500 0.429; SID164378502 -0.333; SID164378503 0.346
IL17C: SID164462896 -0.398; SID164462897 -0.257; SID164462898 -0.254; SID164462899 0.046

No new results follow: entries from further up.
log2 vehicle/camptothecin viability, by gene and reagent
BAX: SID164355042 -0.232
KIF13A: SID164500518 0.039; SID164500519 -0.267; SID164500521 0.0783
IFNA16: SID164370864 0.0647

Further records:
log2 vehicle/camptothecin viability, by gene and reagent
OCA2: SID164378777 0.224; SID164378779 0.391; SID164378780 0.865; SID164378781 -0.164
SAXO6: SID164491534 -0.0574; SID164491537 -0.00442; SID164491538 -0.129; SID164491541 -0.356
GRK5: SID164367488 0.113; SID164367489 0.13; SID164367490 0.557; SID164367492 0.448
ABCD1: SID164352962 -0.944; SID164352963 -0.152; SID164352964 -0.277; SID164352966 -0.0873
OR11A1: SID164460566 -0.329; SID164460568 -0.411; SID164460569 -0.559; SID164460571 -0.595
COQ9: SID164492320 -0.276; SID164492322 -0.109; SID164492324 0.149; SID164492325 -0.0237
